Residue numbers refer to the chain shown, from its start. No constants are given. Whether binding was seen depends on the method and setting. In cells and extracts the contact can be indirect. Some results given as binding are weak or reduced against the parent protein; the word gives no strength. Where a sequence is shown, tags or fusion partners need not be part of it.

The chains behind the UniProt entries cited, without tags or fusion partners.
UniProt Q9UQE7: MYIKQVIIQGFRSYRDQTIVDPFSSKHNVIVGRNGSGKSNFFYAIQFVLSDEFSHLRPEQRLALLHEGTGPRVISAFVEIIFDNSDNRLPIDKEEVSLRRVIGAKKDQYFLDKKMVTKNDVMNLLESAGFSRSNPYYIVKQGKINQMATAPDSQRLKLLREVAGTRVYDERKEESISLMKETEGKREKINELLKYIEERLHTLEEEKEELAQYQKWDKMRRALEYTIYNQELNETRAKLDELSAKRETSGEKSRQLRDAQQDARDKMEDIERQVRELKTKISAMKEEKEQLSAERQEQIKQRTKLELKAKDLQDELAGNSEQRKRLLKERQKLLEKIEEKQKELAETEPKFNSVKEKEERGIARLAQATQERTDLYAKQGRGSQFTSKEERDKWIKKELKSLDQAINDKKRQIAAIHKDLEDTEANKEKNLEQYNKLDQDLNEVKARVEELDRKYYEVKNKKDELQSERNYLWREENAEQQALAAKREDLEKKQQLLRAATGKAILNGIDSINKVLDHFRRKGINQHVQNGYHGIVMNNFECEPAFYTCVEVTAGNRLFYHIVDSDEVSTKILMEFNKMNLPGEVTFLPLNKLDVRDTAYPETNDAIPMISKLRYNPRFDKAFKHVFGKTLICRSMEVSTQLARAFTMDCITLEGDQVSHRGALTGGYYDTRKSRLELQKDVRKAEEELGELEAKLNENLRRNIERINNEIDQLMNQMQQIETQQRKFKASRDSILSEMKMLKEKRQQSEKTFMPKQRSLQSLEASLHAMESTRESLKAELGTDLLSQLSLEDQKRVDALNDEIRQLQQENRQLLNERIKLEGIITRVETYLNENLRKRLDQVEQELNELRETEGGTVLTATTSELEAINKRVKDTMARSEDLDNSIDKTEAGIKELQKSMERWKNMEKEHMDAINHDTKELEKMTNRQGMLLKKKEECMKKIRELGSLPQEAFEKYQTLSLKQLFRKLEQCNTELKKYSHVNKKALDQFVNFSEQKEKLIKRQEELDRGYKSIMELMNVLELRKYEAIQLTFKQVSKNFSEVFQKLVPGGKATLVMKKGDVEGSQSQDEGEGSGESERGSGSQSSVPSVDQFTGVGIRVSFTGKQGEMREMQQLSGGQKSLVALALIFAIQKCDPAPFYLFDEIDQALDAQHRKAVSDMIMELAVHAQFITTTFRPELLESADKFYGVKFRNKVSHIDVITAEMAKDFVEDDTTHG

The values that follow come from PMC7266993.

Experiment [1] concerns the target T1, FLAG–STAG1 D797A, siRNA-resistant transgene (stable, HCT 116 STAG2-502c4) (human) (UniProt Q8WVM7).
T1 sequence: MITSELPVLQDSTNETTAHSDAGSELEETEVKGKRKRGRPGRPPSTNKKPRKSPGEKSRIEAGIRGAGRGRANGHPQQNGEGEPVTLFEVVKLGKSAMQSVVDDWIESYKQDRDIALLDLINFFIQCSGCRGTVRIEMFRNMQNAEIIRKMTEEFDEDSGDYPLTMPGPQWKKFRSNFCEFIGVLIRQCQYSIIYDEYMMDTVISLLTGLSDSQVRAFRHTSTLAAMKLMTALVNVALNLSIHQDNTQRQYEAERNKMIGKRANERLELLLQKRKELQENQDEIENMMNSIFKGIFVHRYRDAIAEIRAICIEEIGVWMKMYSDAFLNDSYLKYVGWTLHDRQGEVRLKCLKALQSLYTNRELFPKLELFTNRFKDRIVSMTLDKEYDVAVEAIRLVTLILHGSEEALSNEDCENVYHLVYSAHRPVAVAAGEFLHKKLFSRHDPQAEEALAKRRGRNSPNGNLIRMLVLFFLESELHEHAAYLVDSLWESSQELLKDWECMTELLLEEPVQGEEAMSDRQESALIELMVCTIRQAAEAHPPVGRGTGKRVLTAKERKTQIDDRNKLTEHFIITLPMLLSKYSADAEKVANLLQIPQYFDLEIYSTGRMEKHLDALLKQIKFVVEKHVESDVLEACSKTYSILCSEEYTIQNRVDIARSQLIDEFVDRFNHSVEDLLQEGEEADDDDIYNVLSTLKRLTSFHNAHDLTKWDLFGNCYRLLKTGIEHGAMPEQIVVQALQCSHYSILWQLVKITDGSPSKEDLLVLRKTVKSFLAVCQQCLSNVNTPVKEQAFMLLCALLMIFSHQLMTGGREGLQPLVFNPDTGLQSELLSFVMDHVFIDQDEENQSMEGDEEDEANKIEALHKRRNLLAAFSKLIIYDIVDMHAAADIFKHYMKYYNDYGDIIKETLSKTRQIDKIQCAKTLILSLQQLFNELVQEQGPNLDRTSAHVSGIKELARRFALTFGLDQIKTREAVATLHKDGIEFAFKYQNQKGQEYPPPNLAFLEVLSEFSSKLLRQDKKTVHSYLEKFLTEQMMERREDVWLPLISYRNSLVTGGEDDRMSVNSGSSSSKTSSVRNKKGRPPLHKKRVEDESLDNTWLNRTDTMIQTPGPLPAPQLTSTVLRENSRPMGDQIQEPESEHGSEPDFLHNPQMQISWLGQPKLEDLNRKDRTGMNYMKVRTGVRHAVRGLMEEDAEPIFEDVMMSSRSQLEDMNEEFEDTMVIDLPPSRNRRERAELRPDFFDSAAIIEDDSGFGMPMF
The experiment in a line: co-IP; FLAG-STAG1 variants stably expressed in HCT 116 STAG2-502c4; anti-FLAG M2 agarose overnight; 50 mM Tris-Cl pH 7.4, 150 mM NaCl, 0.5% NP-40; capillary immunodetection of cohesin ring members.

For experiment [2], the target named is T2, FLAG–STAG1 D797K, siRNA-resistant transgene (stable, HCT 116 STAG2-502c4) (human) (UniProt Q8WVM7).
T2 sequence: T1 sequence with A797K
Described as above.

For experiment [3], the target named is T3, FLAG–STAG1 wild type, siRNA-resistant transgene (stable, HCT 116 STAG2-502c4) (human) (UniProt Q8WVM7).
T3 sequence: T1 sequence with A797D
The experiment is described as above.

For experiment [4], the target named is T4, FLAG epitope-tagged STAG1, wild type (transient, HEK293) (human) (UniProt Q8WVM7).
T4 sequence: T1 sequence with A797D
The experiment in a line: co-IP; FLAG-STAG1 variants transiently expressed in HEK293, 48 h; anti-FLAG M2 agarose 2 h; 25 mM Tris-HCl pH 7.5, 100 mM KCl, 5 mM MgCl2, 0.2% NP-40, 10% glycerol, benzonase; immunoblot and capillary immunodetection of cohesin subunits.

Regarding “SMC3 (endogenous, HCT 116 STAG2-502c4) (from UniProt Q9UQE7 1-1217)”, the binding entry in experiment [1] is “no binding”; in experiment [2] it was “no binding”; in experiment [3] it was “binds”.

Take “SMC3 (endogenous, HEK293) (from UniProt Q9UQE7 1-1217)”: in experiment [4], the binding result is recorded as “binds”.
